Experimental data taken from PubChem BioAssay AID256 (DTP/NCI, 2004).
The list does not hold the whole screen: it gathers tests that were run many times, whatever their T/C, doses with no T/C, and many T/C values between a quarter and a half above the control. Other doses and runs of a compound stand elsewhere. T/C: endpoint of the treated group in % of that of the vehicle group. Some entries give survivors of the animals treated and no T/C: the source files T/C as zero there, which appears to mark a toxic dose or a test without result, not a measured value. Some doses without a T/C left all or most animals alive at the check, yet need not have been tolerated: the source hardly ever lists a survival T/C far under the control, and the zero likely stands for such cases as well. Counts of survivors are from the toxicity check (mostly the fifth day) where no day follows; animals may have died later. Schedules are NCI's codes, read here as Q, the interval in days (D) or hours (H), X, the number of doses. Some entries hold several experiments; their values stand side by side, smallest first. Where survival is the endpoint, this PubChem deposit counts one and a half times the control or more as active, and values a quarter to a half above the control carry no call in these data; other NCI protocols may use other cut-offs. Some T/C values carry the count of animals alive at the toxicity check (mostly the fifth day); without a count, all were alive then.

Test system: CD2F1 mice, L1210 leukemia ip, survival T/C
Experiment: NCI In Vivo Anticancer Drug Screen. Data for tumor model L1210 Leukemia (intraperitoneal) in CD2F1 (CDF1) mice
Settings: higher T/C = longer survival
Outline: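 Compound-dosed mice with transplantable tumor versus matched vehicle controls; endpoint ratio T/C reported.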

[1] = T/C endpoint: mean survival time, dose: 200.0 mg/kg/injection, schedule: Q01DX009 (ip), vehicle: saline with Tween-80
[2] = T/C endpoint: mean survival time, dose: 400.0 mg/kg/injection, schedule: Q04DX003 (ip), vehicle: saline with Tween-80
[3] = T/C endpoint: mean survival time, dose: 400.0 mg/kg/injection, schedule: Q01DX001 (ip), vehicle: saline with Tween-80

SMILES: CCN=NNc1ccc(C)cc1
- survivor count [1]: 2 of 6
- survivor count [2]: 2 of 6

SMILES: CCCOC(=O)c1cc([N+](=O)[O-])c(Sc2ncnc3nc[nH]c23)c([N+](=O)[O-])c1
- T/C (T/C endpoint: mean survival time, dose: 15.6 mg/kg/injection, schedule: Q01DX005 (ip), vehicle: other): 142 % of control
- T/C (T/C endpoint: mean survival time, dose: 31.3 mg/kg/injection, schedule: Q01DX005 (ip), vehicle: other): 146 % of control

SMILES: CCCCCCC[CH2][Sn]1([CH2]CCCCCCC)[O]CC2OC(n3cc(C)c(=O)[nH]c3=O)CC2[O]1 (stereo not given)
- survivor count (T/C endpoint: mean survival time, dose: 100.0 mg/kg/injection, schedule: Q01DX005 (ip), vehicle: other): 3 of 6
- survivor count (T/C endpoint: mean survival time, dose: 200.0 mg/kg/injection, schedule: Q01DX005 (ip), vehicle: other): 0 of 6

SMILES: O=C(Nc1c(Oc2ccc(Cl)cc2Cl)ccc(Cl)c1S(=O)(=O)O)Nc1c(Oc2ccc(Cl)cc2Cl)ccc(Cl)c1S(=O)(=O)O
- survivor count (T/C endpoint: mean survival time, dose: 400.0 mg/kg/injection, schedule: Q01DX001 (ip), vehicle: saline): 0 of 6

SMILES: [O-]c1c(Cl)c(Cl)c(O[P+](c2ccccc2)(c2ccccc2)c2ccccc2)c(Cl)c1Cl
- survivor count (T/C endpoint: mean survival time, dose: 50.0 mg/kg/injection, schedule: Q01DX009 (ip), vehicle: saline): 3 of 3
- survivor count (T/C endpoint: mean survival time, dose: 100.0 mg/kg/injection, schedule: Q01DX009 (ip), vehicle: saline): 3 of 3
- survivor count (T/C endpoint: mean survival time, dose: 200.0 mg/kg/injection, schedule: Q01DX009 (ip), vehicle: saline): 0 of 3

SMILES: COc1cc(C)c(Cl)[n+]([O-])n1
- survivor count (T/C endpoint: mean survival time, dose: 25.0 mg/kg/injection, schedule: Q04DX002 (ip), vehicle: saline with Tween-80): 1 of 3
- survivor count (T/C endpoint: mean survival time, dose: 50.0 mg/kg/injection, schedule: Q04DX002 (ip), vehicle: saline with Tween-80): 0 of 3

SMILES: CCOC(=O)N1C2CCC1CN(C)C2
- survivor count (T/C endpoint: mean survival time, dose: 100.0 mg/kg/injection, schedule: Q04DX003 (ip), vehicle: saline): 6 of 6
- survivor count (T/C endpoint: mean survival time, dose: 200.0 mg/kg/injection, schedule: Q04DX003 (ip), vehicle: saline): 0 of 6
- survivor count (T/C endpoint: mean survival time, dose: 400.0 mg/kg/injection, schedule: Q04DX003 (ip), vehicle: saline): 0 of 6

SMILES: O=C1CNC(=O)N1CN1CCOCC1
- survivor count (T/C endpoint: median survival time, dose: 800.0 mg/kg/injection, schedule: Q01DX009 (ip), vehicle: Klucel (hydroxypropylcellulose) (HPC)): 1 of 6

SMILES: C=C(CC(=O)O)C(=O)O (tested in a mixture with another compound)
- survivor count [2]: 0 of 6

SMILES: CCNc1ncc2ccccc2c1-c1ccc(N2CCN(CCCl)CC2)cc1
- survivor count (T/C endpoint: mean survival time, dose: 400.0 mg/kg/injection, schedule: Q04DX003 (ip), vehicle: saline + alcohol): 0 of 3

SMILES: COc1ncn(C2CC(OC(=O)c3ccc(C)cc3)C(COC(=O)c3ccc(C)cc3)O2)c(=O)n1 (stereo not given)
- survivor count (T/C endpoint: mean survival time, dose: 100.0 mg/kg/injection, schedule: Q04DX003 (ip), vehicle: saline with Tween-80): 5 of 6
- survivor count [2]: 6 of 6

SMILES: N#Cc1cccc(/C=C/c2ccc(S(=O)(=O)F)cc2)c1
- survivor count (T/C endpoint: mean survival time, dose: 400.0 mg/kg/injection, schedule: Q04DX003 (ip), vehicle: other): 3 of 3 and 6 of 6

SMILES: S=C(Nc1ccc(Cl)c(Cl)c1)N1c2ccccc2-n2cccc2C1c1cccnc1 (stereo not given)
- T/C (T/C endpoint: mean survival time, dose: 400.0 mg/kg/injection, schedule: Q01DX009 (ip), vehicle: Klucel (hydroxypropylcellulose) (HPC)): 130 [4 of 6 alive] and 138 % of control
- survivor count (T/C endpoint: mean survival time, dose: 800.0 mg/kg/injection, schedule: Q01DX009 (ip), vehicle: Klucel (hydroxypropylcellulose) (HPC)): 2 of 6

SMILES: CCC1(O)C(=O)OCc2c1cc1n(c2=O)Cc2cc3ccc([N+](=O)[O-])cc3nc2-1 (stereo not given)
- T/C (T/C endpoint: median survival time, dose: 20.0 mg/kg/injection, schedule: Q04DX002 (ip), vehicle: saline with Tween-80): 125 % of control
- T/C (T/C endpoint: median survival time, dose: 40.0 mg/kg/injection, schedule: Q04DX002 (ip), vehicle: saline with Tween-80): 133 % of control
- T/C (T/C endpoint: median survival time, dose: 80.0 mg/kg/injection, schedule: Q04DX002 (ip), vehicle: saline with Tween-80): 147 % of control

SMILES: CN(Cc1c[nH]c2nc(N)nc(N)c2c1=O)c1ccc(C(=O)NC(CCC(=O)O)C(=O)O)cc1 (stereo not given)
- T/C (T/C endpoint: mean survival time, dose: 8.0 mg/kg/injection, schedule: Q01DX005 (ip), vehicle: sodium bicarbonate): 127 % of control

SMILES: C=C1CC2CCC1C2 (stereo not given)
- survivor count [1]: 5 of 6
- survivor count (T/C endpoint: mean survival time, dose: 400.0 mg/kg/injection, schedule: Q01DX009 (ip), vehicle: saline with Tween-80): 3 of 6

SMILES: C=C1C(=O)OC2/C=C(\C)C3OC3/C=C(/C(=O)OC)C(O)C(OC(=O)C3(C)OC3C)C12 (stereo not given)
- survivor count (T/C endpoint: mean survival time, dose: 200.0 mg/kg/injection, schedule: Q01DX001 (ip), vehicle: saline with Tween-80): 0 of 6
- survivor count [3]: 0 of 6

SMILES: Cc1ccccc1N=Nc1ccc(O)cc1
- survivor count [3]: 3 of 6

SMILES: COc1cc([N+](=O)[O-])c(C)[n+]([O-])n1
- survivor count (T/C endpoint: mean survival time, dose: 100.0 mg/kg/injection, schedule: Q04DX002 (ip), vehicle: saline with Tween-80): 0 of 3

SMILES: O=C1CC2CC1C1C3CCC(CC3)C21 (stereo not given)
- survivor count (T/C endpoint: mean survival time, dose: 25.0 mg/kg/injection, schedule: Q01DX009 (ip), vehicle: saline with Tween-80): 0 of 3
- survivor count (T/C endpoint: mean survival time, dose: 50.0 mg/kg/injection, schedule: Q01DX009 (ip), vehicle: saline with Tween-80): 0 of 3
